From paper PMC4889050
No constants are given. Whether binding was seen depends on the method and setting. In cells and extracts the contact can be indirect. These calls come from enrichment with a bait or labelling near it, and not all partners need be listed.

The chains behind the UniProt entries cited, without tags or fusion partners.
UniProt Q9Y657: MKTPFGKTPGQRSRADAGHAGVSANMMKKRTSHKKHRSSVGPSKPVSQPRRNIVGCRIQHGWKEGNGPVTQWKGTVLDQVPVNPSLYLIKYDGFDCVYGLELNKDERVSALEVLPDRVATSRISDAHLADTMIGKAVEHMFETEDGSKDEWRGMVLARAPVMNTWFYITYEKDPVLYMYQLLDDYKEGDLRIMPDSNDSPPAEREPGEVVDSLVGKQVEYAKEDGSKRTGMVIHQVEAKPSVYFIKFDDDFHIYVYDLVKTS
UniProt P13010: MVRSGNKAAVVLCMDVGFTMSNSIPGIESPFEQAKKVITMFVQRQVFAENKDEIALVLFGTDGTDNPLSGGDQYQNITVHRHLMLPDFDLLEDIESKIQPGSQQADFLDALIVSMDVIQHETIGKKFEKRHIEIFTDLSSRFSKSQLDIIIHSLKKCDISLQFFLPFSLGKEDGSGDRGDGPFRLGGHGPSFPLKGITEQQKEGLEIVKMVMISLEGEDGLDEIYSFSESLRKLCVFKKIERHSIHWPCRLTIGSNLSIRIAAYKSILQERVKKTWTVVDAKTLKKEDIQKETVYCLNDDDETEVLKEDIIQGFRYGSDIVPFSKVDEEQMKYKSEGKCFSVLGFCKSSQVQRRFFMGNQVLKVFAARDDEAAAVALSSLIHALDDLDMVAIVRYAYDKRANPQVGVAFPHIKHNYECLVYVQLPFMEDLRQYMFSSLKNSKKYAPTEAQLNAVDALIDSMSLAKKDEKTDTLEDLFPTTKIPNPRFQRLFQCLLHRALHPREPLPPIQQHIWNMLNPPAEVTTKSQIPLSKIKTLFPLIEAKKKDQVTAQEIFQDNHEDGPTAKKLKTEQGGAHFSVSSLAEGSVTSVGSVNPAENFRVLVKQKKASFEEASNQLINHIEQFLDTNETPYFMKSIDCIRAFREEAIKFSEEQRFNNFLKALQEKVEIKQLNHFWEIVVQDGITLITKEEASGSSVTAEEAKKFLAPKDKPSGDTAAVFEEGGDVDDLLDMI
UniProt Q13185: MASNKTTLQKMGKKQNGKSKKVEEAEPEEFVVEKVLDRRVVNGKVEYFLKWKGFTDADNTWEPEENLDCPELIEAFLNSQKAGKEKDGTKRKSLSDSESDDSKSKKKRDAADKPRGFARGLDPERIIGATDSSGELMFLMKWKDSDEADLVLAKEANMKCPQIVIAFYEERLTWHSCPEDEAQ
UniProt P45973: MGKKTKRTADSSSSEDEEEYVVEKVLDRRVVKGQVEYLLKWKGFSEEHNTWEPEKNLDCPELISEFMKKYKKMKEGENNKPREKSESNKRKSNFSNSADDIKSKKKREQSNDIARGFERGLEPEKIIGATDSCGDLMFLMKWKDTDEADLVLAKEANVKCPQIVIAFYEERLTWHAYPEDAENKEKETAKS
UniProt P83916: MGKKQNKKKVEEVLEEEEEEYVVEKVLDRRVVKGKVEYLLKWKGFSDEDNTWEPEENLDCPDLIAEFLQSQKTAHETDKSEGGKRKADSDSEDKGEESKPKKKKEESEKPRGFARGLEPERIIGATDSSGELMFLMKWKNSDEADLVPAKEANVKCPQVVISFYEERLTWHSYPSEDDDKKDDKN
UniProt P12956: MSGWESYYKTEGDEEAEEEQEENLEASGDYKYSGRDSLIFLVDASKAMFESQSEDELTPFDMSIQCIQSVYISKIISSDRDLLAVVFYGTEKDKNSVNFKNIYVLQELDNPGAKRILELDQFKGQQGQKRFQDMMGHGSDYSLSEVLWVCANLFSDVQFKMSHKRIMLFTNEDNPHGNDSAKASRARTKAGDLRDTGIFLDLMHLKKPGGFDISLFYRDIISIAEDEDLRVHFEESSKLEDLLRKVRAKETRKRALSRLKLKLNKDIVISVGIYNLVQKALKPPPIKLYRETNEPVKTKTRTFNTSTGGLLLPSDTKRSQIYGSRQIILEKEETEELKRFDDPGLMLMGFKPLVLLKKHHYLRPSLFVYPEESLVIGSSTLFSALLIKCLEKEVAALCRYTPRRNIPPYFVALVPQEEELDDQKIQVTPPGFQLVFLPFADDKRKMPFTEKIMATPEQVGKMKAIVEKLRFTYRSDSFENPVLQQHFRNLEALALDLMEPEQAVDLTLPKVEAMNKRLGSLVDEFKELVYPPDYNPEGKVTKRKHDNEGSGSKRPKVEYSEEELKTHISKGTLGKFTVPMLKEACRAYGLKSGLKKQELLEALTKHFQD
UniProt P27694: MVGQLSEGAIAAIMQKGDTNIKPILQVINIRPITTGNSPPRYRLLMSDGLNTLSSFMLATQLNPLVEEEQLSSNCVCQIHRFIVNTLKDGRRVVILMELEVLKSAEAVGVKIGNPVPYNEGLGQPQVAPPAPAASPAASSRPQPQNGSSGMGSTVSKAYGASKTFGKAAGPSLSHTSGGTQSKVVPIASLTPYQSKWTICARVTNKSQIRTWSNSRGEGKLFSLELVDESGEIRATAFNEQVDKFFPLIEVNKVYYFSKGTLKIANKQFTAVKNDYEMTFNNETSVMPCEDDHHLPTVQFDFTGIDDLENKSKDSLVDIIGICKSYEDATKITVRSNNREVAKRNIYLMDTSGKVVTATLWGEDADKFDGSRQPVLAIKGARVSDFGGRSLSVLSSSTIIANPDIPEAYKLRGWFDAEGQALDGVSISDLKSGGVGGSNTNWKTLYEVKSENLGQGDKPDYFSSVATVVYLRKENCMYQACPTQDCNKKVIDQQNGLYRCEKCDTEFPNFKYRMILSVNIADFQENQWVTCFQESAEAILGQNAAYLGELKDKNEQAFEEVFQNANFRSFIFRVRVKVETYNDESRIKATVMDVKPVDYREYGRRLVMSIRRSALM
UniProt Q16531: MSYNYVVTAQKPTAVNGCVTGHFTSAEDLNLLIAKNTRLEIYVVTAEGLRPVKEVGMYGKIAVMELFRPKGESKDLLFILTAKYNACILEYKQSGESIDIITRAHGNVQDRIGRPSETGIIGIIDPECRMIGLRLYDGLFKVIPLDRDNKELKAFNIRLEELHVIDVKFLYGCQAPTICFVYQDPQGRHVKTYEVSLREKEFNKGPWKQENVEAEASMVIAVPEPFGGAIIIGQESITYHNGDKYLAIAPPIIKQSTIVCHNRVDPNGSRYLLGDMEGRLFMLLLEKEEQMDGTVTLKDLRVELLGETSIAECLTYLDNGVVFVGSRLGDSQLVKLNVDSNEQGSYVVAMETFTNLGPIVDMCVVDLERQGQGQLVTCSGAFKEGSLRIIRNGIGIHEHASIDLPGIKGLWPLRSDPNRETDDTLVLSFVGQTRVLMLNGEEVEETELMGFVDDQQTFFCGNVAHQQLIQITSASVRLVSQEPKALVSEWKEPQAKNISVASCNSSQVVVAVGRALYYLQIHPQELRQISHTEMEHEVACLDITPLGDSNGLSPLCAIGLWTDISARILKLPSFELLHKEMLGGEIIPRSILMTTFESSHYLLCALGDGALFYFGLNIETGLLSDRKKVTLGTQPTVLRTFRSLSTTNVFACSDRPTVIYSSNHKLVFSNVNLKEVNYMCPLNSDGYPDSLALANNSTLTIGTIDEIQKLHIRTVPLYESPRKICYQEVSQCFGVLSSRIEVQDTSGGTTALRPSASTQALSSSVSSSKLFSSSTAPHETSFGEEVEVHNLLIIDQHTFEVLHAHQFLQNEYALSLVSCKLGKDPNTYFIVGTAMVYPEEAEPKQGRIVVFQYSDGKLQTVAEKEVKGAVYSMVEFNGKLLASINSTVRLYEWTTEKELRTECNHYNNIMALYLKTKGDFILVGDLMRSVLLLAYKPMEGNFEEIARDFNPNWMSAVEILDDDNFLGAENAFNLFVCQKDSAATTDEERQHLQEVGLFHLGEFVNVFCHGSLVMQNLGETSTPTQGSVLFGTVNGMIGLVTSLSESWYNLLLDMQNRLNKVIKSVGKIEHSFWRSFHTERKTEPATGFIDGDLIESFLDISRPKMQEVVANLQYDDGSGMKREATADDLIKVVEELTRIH
UniProt P15927: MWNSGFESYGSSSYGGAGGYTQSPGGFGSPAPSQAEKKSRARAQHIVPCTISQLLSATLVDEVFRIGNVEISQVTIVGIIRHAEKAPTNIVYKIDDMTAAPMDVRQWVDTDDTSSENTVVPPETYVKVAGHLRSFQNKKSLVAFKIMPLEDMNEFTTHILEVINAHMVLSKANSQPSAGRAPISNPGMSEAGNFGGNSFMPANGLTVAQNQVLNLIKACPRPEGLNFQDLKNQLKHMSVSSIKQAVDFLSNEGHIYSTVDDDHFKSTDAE
UniProt P54727: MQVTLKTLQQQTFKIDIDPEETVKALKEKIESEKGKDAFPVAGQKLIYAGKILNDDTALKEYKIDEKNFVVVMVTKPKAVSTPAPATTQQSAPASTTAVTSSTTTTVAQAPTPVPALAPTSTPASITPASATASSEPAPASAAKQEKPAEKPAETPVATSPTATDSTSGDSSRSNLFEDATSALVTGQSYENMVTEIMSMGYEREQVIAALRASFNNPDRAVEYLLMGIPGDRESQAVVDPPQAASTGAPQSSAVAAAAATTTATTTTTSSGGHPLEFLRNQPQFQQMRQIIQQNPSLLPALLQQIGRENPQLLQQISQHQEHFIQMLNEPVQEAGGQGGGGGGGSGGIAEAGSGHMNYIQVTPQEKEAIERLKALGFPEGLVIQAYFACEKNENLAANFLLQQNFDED
UniProt P20585: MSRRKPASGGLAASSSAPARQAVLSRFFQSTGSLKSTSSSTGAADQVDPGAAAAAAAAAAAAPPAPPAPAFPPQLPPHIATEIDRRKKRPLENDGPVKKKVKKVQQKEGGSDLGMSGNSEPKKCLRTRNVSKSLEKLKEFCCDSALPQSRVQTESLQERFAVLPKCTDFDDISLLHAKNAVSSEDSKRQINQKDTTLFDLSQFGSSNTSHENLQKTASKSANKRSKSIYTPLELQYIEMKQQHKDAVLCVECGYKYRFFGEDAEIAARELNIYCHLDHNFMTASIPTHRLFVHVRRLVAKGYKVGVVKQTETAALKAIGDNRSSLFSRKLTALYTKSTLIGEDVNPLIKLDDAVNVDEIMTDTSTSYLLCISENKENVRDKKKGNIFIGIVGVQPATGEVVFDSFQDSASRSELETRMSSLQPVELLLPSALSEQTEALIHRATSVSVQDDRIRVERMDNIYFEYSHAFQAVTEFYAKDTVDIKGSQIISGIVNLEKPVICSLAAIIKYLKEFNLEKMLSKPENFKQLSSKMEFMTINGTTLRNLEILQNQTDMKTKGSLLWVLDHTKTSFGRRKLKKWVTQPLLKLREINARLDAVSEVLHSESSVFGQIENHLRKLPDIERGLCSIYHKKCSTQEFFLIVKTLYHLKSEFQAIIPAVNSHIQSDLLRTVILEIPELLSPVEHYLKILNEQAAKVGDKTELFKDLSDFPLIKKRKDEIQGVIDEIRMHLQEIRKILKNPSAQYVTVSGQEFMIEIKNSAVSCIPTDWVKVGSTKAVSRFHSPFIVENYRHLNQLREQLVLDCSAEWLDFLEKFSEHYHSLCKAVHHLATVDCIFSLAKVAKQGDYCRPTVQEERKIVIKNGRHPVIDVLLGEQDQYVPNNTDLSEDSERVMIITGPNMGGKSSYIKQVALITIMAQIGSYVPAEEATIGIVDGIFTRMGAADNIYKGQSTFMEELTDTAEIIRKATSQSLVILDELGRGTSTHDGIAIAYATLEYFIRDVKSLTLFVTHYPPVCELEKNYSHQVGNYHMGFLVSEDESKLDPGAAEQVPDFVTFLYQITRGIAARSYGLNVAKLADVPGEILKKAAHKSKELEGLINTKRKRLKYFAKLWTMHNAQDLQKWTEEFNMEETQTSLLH

T1: Halo-WDR76 (human) (UniProt Q9H967)
T1 sequence: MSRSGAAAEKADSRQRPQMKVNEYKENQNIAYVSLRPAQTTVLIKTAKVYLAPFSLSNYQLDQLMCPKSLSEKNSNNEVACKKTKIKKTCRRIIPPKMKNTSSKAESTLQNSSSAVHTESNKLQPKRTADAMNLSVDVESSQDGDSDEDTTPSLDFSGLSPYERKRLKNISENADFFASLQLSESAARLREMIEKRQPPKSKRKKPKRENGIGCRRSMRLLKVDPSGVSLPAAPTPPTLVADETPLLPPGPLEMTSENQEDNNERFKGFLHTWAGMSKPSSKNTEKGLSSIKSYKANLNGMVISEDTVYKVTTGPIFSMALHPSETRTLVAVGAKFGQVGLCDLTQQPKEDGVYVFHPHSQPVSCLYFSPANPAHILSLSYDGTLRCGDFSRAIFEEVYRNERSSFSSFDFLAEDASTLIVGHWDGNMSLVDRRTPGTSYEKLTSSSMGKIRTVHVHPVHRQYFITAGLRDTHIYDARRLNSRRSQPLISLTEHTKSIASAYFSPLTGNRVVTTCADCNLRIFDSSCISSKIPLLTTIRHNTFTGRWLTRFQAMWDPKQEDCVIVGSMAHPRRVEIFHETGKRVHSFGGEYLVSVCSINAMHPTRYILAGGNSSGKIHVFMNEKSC

B1: HELLS (protein, UniProt Q9NRZ9 1-838)
chain: MPAERPAGSGGSEAPAMVEQLDTAVITPAMLEEEEQLEAAGLERERKMLEKARMSWDRESTEIRYRRLQHLLEKSNIYSKFLLTKMEQQQLEEQKKKEKLERKKESLKVKKGKNSIDASEEKPVMRKKRGREDESYNISEVMSKEEILSVAKKNKKENEDENSSSTNLCVEDLQKNKDSNSIIKDRLSETVRQNTKFFFDPVRKCNGQPVPFQQPKHFTGGVMRWYQVEGMEWLRMLWENGINGILADEMGLGKTVQCIATIALMIQRGVPGPFLVCGPLSTLPNWMAEFKRFTPDIPTMLYHGTQEERQKLVRNIYKRKGTLQIHPVVITSFEIAMRDRNALQHCYWKYLIVDEGHRIKNMKCRLIRELKRFNADNKLLLTGTPLQNNLSELWSLLNFLLPDVFDDLKSFESWFDITSLSETAEDIIAKEREQNVLHMLHQILTPFLLRRLKSDVALEVPPKREVVVYAPLSKKQEIFYTAIVNRTIANMFGSSEKETIELSPTGRPKRRTRKSINYSKIDDFPNELEKLISQIQPEVDRERAVVEVNIPVESEVNLKLQNIMMLLRKCCNHPYLIEYPIDPVTQEFKIDEELVTNSGKFLILDRMLPELKKRGHKVLLFSQMTSMLDILMDYCHLRDFNFSRLDGSMSYSEREKNMHSFNTDPEVFIFLVSTRAGGLGINLTAADTVIIYDSDWNPQSDLQAQDRCHRIGQTKPVVVYRLVTANTIDQKIVERAAAKRKLEKLIIHKNHFKGGQSGLNLSKNFLDPKELMELLKSRDYEREIKGSREKVISDKDLELLLDRSDLIDQMNASGPIKEKMGIFKILENSEDSSPECLF
B2: GAN (protein, UniProt Q9H2C0 1-597)
chain: MAEGSAVSDPQHAARLLRALSSFREESRFCDAHLVLDGEEIPVQKNILAAASPYIRTKLNYNPPKDDGSTYKIELEGISVMVMREILDYIFSGQIRLNEDTIQDVVQAADLLLLTDLKTLCCEFLEGCIAAENCIGIRDFALHYCLHHVHYLATEYLETHFRDVSSTEEFLELSPQKLKEVISLEKLNVGNERYVFEAVIRWIAHDTEIRKVHMKDVMSALWVSGLDSSYLREQMLNEPLVREIVKECSNIPLSQPQQGEAMLANFKPRGYSECIVTVGGEERVSRKPTAAMRCMCPLYDPNRQLWIELAPLSMPRINHGVLSAEGFLFVFGGQDENKQTLSSGEKYDPDANTWTALPPMNEARHNFGIVEIDGMLYILGGEDGEKELISMECYDIYSKTWTKQPDLTMVRKIGCYAAMKKKIYAMGGGSYGKLFESVECYDPRTQQWTAICPLKERRFGAVACGVAMELYVFGGVRSREDAQGSEMVTCKSEFYHDEFKRWIYLNDQNLCIPASSSFVYGAVPIGASIYVIGDLDTGTNYDYVREFKRSTGTWHHTKPLLPSDLRRTGCAALRIANCKLFRLQLQQGLFRIRVHSP
B3: RFC1 (protein, UniProt P35251 1-1148)
chain: MDIRKFFGVIPSGKKLVSETVKKNEKTKSDEETLKAKKGIKEIKVNSSRKEDDFKQKQPSKKKRIIYDSDSESEETLQVKNAKKPPEKLPVSSKPGKISRQDPVTYISETDEEDDFMCKKAASKSKENGRSTNSHLGTSNMKKNEENTKTKNKPLSPIKLTPTSVLDYFGTGSVQRSNKKMVASKRKELSQNTDESGLNDEAIAKQLQLDEDAELERQLHEDEEFARTLAMLDEEPKTKKARKDTEAGETFSSVQANLSKAEKHKYPHKVKTAQVSDERKSYSPRKQSKYESSKESQQHSKSSADKIGEVSSPKASSKLAIMKRKEESSYKEIEPVASKRKENAIKLKGETKTPKKTKSSPAKKESVSPEDSEKKRTNYQAYRSYLNREGPKALGSKEIPKGAENCLEGLIFVITGVLESIERDEAKSLIERYGGKVTGNVSKKTNYLVMGRDSGQSKSDKAAALGTKIIDEDGLLNLIRTMPGKKSKYEIAVETEMKKESKLERTPQKNVQGKRKISPSKKESESKKSRPTSKRDSLAKTIKKETDVFWKSLDFKEQVAEETSGDSKARNLADDSSENKVENLLWVDKYKPTSLKTIIGQQGDQSCANKLLRWLRNWQKSSSEDKKHAAKFGKFSGKDDGSSFKAALLSGPPGVGKTTTASLVCQELGYSYVELNASDTRSKSSLKAIVAESLNNTSIKGFYSNGAASSVSTKHALIMDEVDGMAGNEDRGGIQELIGLIKHTKIPIICMCNDRNHPKIRSLVHYCFDLRFQRPRVEQIKGAMMSIAFKEGLKIPPPAMNEIILGANQDIRQVLHNLSMWCARSKALTYDQAKADSHRAKKDIKMGPFDVARKVFAAGEETAHMSLVDKSDLFFHDYSIAPLFVQENYIHVKPVAAGGDMKKHLMLLSRAADSICDGDLVDSQIRSKQNWSLLPAQAIYASVLPGELMRGYMTQFPTFPSWLGKHSSTGKHDRIVQDLALHMSLRTYSSKRTVNMDYLSLLRDALVQPLTSQGVDGVQDVVALMDTYYLMKEDFENIMEISSWGGKPSPFSKLDPKVKAAFTRAYNKEAHLTPYSLQAIKASRHSTSPSLDSEYNEELNEDDSQSDEKDQDAIETDAMIKKKTKSSKPSKPEKDKEPRKGKGKSSKK
B4: XPC (protein, UniProt Q01831 1-940)
chain: MARKRAAGGEPRGRELRSQKSKAKSKARREEEEEDAFEDEKPPKKSLLSKVSQGKRKRGCSHPGGSADGPAKKKVAKVTVKSENLKVIKDEALSDGDDLRDFPSDLKKAHHLKRGATMNEDSNEEEEESENDWEEVEELSEPVLGDVRESTAFSRSLLPVKPVEIEIETPEQAKTRERSEKIKLEFETYLRRAMKRFNKGVHEDTHKVHLLCLLANGFYRNNICSQPDLHAIGLSIIPARFTRVLPRDVDTYYLSNLVKWFIGTFTVNAELSASEQDNLQTTLERRFAIYSARDDEELVHIFLLILRALQLLTRLVLSLQPIPLKSATAKGKKPSKERLTADPGGSSETSSQVLENHTKPKTSKGTKQEETFAKGTCRPSAKGKRNKGGRKKRSKPSSSEEDEGPGDKQEKATQRRPHGRERRVASRVSYKEESGSDEAGSGSDFELSSGEASDPSDEDSEPGPPKQRKAPAPQRTKAGSKSASRTHRGSHRKDPSLPAASSSSSSSKRGKKMCSDGEKAEKRSIAGIDQWLEVFCEQEEKWVCVDCVHGVVGQPLTCYKYATKPMTYVVGIDSDGWVRDVTQRYDPVWMTVTRKCRVDAEWWAETLRPYQSPFMDREKKEDLEFQAKHMDQPLPTAIGLYKNHPLYALKRHLLKYEAIYPETAAILGYCRGEAVYSRDCVHTLHSRDTWLKKARVVRLGEVPYKMVKGFSNRARKARLAEPQLREENDLGLFGYWQTEEYQPPVAVDGKVPRNEFGNVYLFLPSMMPIGCVQLNLPNLHRVARKLDIDCVQAITGFDFHGGYSHPVTDGYIVCEEFKDVLLTAWENEQAVIERKEKEKKEKRALGNWKLLAKGLLIRERLKRRYGPKSEAAAPHTDAGGGLSSDEEEGTSSQAEAARILAASWPQNREDEEKQKLKGGPKKTKREKKAAASHLFPFEQL

Target: T1, Halo-WDR76 (human)
Assay: affinity purification with mass spectrometry; Halo-tagged baits stably expressed in HEK293FRT; nuclear extract (0.42 M NaCl) on Magne HaloTag beads 1 hr at 4°C; washes 25 mM Tris-HCl pH 7.4, 136 mM NaCl, 2.7 mM KCl, 0.05% Nonidet P40; TEV elution; MudPIT, dNSAF, QSPEC against control purifications

binding, binds:
SPIN1 (from UniProt Q9Y657 1-262), XRCC5 (from UniProt P13010 1-732), CBX3 (from UniProt Q13185 1-183), PARP1 (from UniProt P09874 1-1014), CBX5 (from UniProt P45973 1-191), CBX1 (from UniProt P83916 1-185), XRCC6 (from UniProt P12956 1-609), RPA1 (from UniProt P27694 1-616), B1, B2

Target: T1, Halo-WDR76 (human)
Assay: affinity purification with mass spectrometry; nuclear extract (0.42 M NaCl) of HEK293FRT cells stably expressing Halo-WDR76 incubated with Magne HaloTag beads 1 hr at 4°C; washed with 25 mM Tris-HCl pH 7.4, 136 mM NaCl, 2.7 mM KCl, 0.05% Nonidet P40; eluted with AcTEV protease; MudPIT; enrichment over control purifications by QSPEC (z-score greater than 2, FDR less than 0.05)

binding, binds:
DDB1 (from UniProt Q16531 1-1140), RPA2 (from UniProt P15927 1-270), RAD23B (from UniProt P54727 1-409), PRKDC (from UniProt P78527 1-4128), MSH3 (from UniProt P20585 1-1137), B3, B4
